Assay results published in PubChem BioAssay AID504444 (National Center for Advancing Translational Sciences (NCATS), 2011).
Screen size: about 360,000 compounds; about 7,500 (2.1%) were called active. The inconclusive results got no clear call from the source; some entries with a clear call stand among them for comparison. Calls follow the shape of the dose curve; as a rule, active = well fitted inhibition curve with a large enough effect; inconclusive = small, poorly fitted or top-dose-only effect, or effect the other way; inactive = flat fitted curve, though single readings scatter. Where the call is inconclusive, the potency comes from a doubtful curve fit.

Assay: Nrf2 qHTS screen for inhibitors; also: nearly all actives have a fitted effect of over 60% in size
Conditions: A549 ARE-Fluc reporter, luciferase luminescence, 18-24 h; series mostly up to 46 µM
How it was run: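 Two sequential reads on A549 ARE_Fluc cells exposed to compound for 18-24 h: a CellTiter-Fluor fluorescence read for viability, then a luciferase luminescence read for Nrf2/ARE activity.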
Potency is read from the fitted curve at half-maximal effect.

Structure (SMILES) | Potency
Nc1cc(Cl)c2nonc2c1[N+](=O)[O-] | inconclusive: 29.1 µM [falling, single point]
CC(C)C/C(=N/O)c1cn(C)c2ccccc12 | inconclusive: 6.51 µM [activator, partial curve]
O=C(c1ccccc1)c1ccc2nc(N3CCN(c4ccc(F)cc4)CC3)c3nncn3c2c1 | inconclusive: 6.51 µM [falling, partial curve, poor fit]
Cc1nn(CC(C)C)c(Cl)c1C(=O)NC1CCC(C)CC1 (configuration not stated) | inconclusive: 5.17 µM [activator, partial curve]
CCOP(=O)(OCC)/C(=N/OC(=O)c1ccccc1C)C(N)=O | inconclusive: 13 µM [falling, partial curve, poor fit]
COC(=O)C1=C(c2ccc(F)cc2F)C[C@@H]2CC[C@H]1N2C(=O)NC1CC1 | inactive
NC(=Nc1ccccc1)NN=Cc1c[nH]c2ccccc12 | inconclusive: 29.1 µM [activator, single point]
CCOc1ccc(CCNC(=O)c2cc3c(-c4cccc(OC)c4)nn(C)c3s2)cc1OCC | active: 18.4 µM
CC1CC(C)CN(S(=O)(=O)c2ccc3c(c2)oc(=O)n3CC(=O)NCc2cccnc2)C1 (configuration not stated) | inconclusive: 23.1 µM [falling, partial curve]
O=C(CN1C(=O)C2(OCCO2)c2ccccc21)c1ccc(F)cc1 | inconclusive: 6.51 µM [activator, single point]
COc1cc(CN=C(C)c2c(O)n(C)c(=O)n(C)c2=O)cc(OC)c1 | inconclusive: 16.4 µM [falling, partial curve, poor fit]
c1ccc2c(CN3CCCCC3)c[nH]c2c1 | inconclusive: 20.6 µM [falling, partial curve, poor fit]
CCOP(=O)(OCC)/C(C#N)=C/c1ccc(Br)cc1 | inconclusive: 1.84 µM [activator, full curve]
CCc1ccc(-c2nc(CSCC(=O)N3CCN(c4ccc(F)cc4)CC3)c(C)o2)cc1 | active: 7.31 µM
COc1ccccc1N=c1scc(-c2ccc(S(=O)(=O)N3CCCC3)cc2)n1C | active: 3.66 µM
N=C1/C(=C\c2ccc(OC(=O)c3ccccc3Cl)cc2)C(=O)N=C2SC(N3CCOCC3)=NN12 | inconclusive: 0.58 µM [falling, full curve, poor fit]
CC(=O)NC1=C(N2CC2C)C(=O)C(NC(C)=O)=C(N2CC2C)C1=O (configuration not stated) | inconclusive: 13 µM [falling, partial curve, poor fit]
CCOC(=O)C1(c2ccccc2)CCN(CCC(=O)Nc2cccc(Br)c2)CC1 | inactive
CCOc1cc(CNCCc2c[nH]c3ccccc23)cc(Cl)c1OC | inconclusive: 29.1 µM [falling, single point]
COc1ccc(N=C(C)c2c(O)n(C)c(=O)n(C)c2=O)c(OC)c1 | inconclusive: 20.6 µM [activator, partial curve]
COC(=O)C1=C(c2ccc(OC(F)(F)F)cc2)C[C@@H]2CC[C@H]1N2C(=O)NCC1CC1 | inconclusive: 14.6 µM [falling, partial curve]

10 entries from above, with tabs:
Structure (SMILES)	Potency
Nc1cc(Cl)c2nonc2c1[N+](=O)[O-]	inconclusive: 29.1 µM [falling, single point]
Cc1nn(CC(C)C)c(Cl)c1C(=O)NC1CCC(C)CC1 (configuration not stated)	inconclusive: 5.17 µM [activator, partial curve]
NC(=Nc1ccccc1)NN=Cc1c[nH]c2ccccc12	inconclusive: 29.1 µM [activator, single point]
CC1CC(C)CN(S(=O)(=O)c2ccc3c(c2)oc(=O)n3CC(=O)NCc2cccnc2)C1 (configuration not stated)	inconclusive: 23.1 µM [falling, partial curve]
O=C(CN1C(=O)C2(OCCO2)c2ccccc21)c1ccc(F)cc1	inconclusive: 6.51 µM [activator, single point]
COc1cc(CN=C(C)c2c(O)n(C)c(=O)n(C)c2=O)cc(OC)c1	inconclusive: 16.4 µM [falling, partial curve, poor fit]
CCOP(=O)(OCC)/C(C#N)=C/c1ccc(Br)cc1	inconclusive: 1.84 µM [activator, full curve]
COc1ccccc1N=c1scc(-c2ccc(S(=O)(=O)N3CCCC3)cc2)n1C	active: 3.66 µM
CCOC(=O)C1(c2ccccc2)CCN(CCC(=O)Nc2cccc(Br)c2)CC1	inactive
COc1ccc(N=C(C)c2c(O)n(C)c(=O)n(C)c2=O)c(OC)c1	inconclusive: 20.6 µM [activator, partial curve]

Following part:

Structure (SMILES) | Potency
O=C(CN1CCN(C(=O)COc2cccc(F)c2)CC1)Nc1ccc(Cl)c(C(F)(F)F)c1 | inconclusive: 29.1 µM [falling, single point]
C1=C(c2c[nH]c3ccccc23)CCN(Cc2ccccc2)C1 | active: 6.51 µM
O=C(CCN1CC2CCC(CC2)C1)c1cccs1 | inactive
O=c1[nH]c(=O)n(-c2ccc(F)cc2)c(O)c1C=NCCN1CCCCC1 | inconclusive: 0.146 µM [falling, full curve, poor fit]
O=C(CNC(=O)OCc1ccccc1)Nc1ccc(Br)cc1C(=O)c1ccccc1 | inconclusive: 16.4 µM [falling, single point]
Cc1cccc(-n2c(/C=C/c3ccccn3)nc3ccccc3c2=O)c1 | inconclusive: 16.4 µM [falling, single point]
O=C1c2ccccc2-c2cccc3cccc1c23 | inactive
CCCc1nnc(NC(=O)CCC(=O)N2CCN(Cc3ccc(OC)c(F)c3)CC2)s1 | inconclusive: 16.4 µM [falling, partial curve, poor fit]
COc1cc(/C=N/NC(=O)CN2CC(c3ccccc3)CC2=O)ccc1OC(=O)N(C)C (configuration not stated) | inconclusive: 25.9 µM [falling, partial curve, poor fit]
O=C(c1ccc2c(c1)N(Cc1ccc(F)cc1)CCS2)N1CCC2(CC1)OCCO2 | inconclusive: 16.4 µM [falling, single point]
COc1ccc(-c2nc(CN3C(=O)CN=C(c4ccccc4Cl)c4cc(Cl)ccc43)c(C)o2)cc1OC | inconclusive: 9.2 µM [falling, single point]
CC(=O)c1cccc(NC(=O)c2cc3c(s2)-c2c(C)cccc2OC3)c1 | active: 7.31 µM
O=C(Cn1cc(C(=O)c2ccccc2)c2ccccc21)Nc1ccc(Br)cc1 | inconclusive: 29.1 µM [falling, single point]
CC1CC(C)(O)CC(C(O)CC2CC(=O)NC(=O)C2)C1=O (configuration not stated) | active: 0.58 µM
C[C@@H]([C@@H](O)c1ccccc1)N(C)C(=O)Cc1ccccc1 | inactive
S=c1[nH]c2ccccc2[nH]1 | inconclusive: 29.1 µM [falling, single point]
COC(=O)C1=C(c2ccccc2OCc2ccccc2)C[C@@H]2CC[C@H]1N2C(=O)NCCOc1ccc(OC)cc1 | inconclusive: 16.4 µM [falling, single point]
CSc1ccc(CN2CCN(c3ccccc3C)CC2)cc1 | inconclusive: 25.9 µM [falling, single point]
C=C1C(O)(c2ccccc2)C2CC[N+]1(C)CC2 (configuration not stated) | inactive
CN(CC(=O)Nc1cccc(F)c1)CC(=O)Nc1cccc(S(=O)(=O)N(C)c2ccccc2)c1 | inconclusive: 18.4 µM [falling, single point]
CCN1CCN(C(=O)COc2ccc(S(=O)(=O)Nc3ccc(Cl)cc3)cc2)CC1 | inconclusive: 25.9 µM [falling, single point]
